# Hit rate of the full screen: of about 400,000 compounds, about 13,000 (3.2%) were called active. The inconclusive results got no clear call from the source; some entries with a clear call stand among them for comparison. The call rests on the fitted dose curve; in most records, active means well fitted cell-killing curve with a large enough effect; inconclusive means small, poorly fitted or top-dose-only effect, or effect the other way; inactive means flat fitted curve, though single readings scatter. Where the call is inconclusive, the potency comes from a doubtful curve fit.
# Assay: qHTS assay for MDR1-selective chemotherapeutics: Primary screen using the drug-selected MDR subline cells KB-V1; further: nearly all actives have a fitted effect of over 60% in size
# Conditions: KB-V1 MDR cells viability, CellTiter-Glo, 72 h; activity change, negative = cytotoxicity: at 46.1 µM (top of the series)
# Method in brief: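 Cells of the MDR subline KB-V1 are plated, dosed with compound at multiple concentrations, and incubated 72 h at 37 degrees C; CellTiter-Glo is then added and luminescence read after 10 min.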
# On the % scale 0 is the no-effect control and ±100 the full control effect; potency means the concentration at half of the fitted maximal effect.
Compound,Potency,"activity change, negative = cytotoxicity"
O=C(CCNC(=O)c1ccc(Cl)cc1)Nc1ncccc1O,"inconclusive: 1.16 µM [rising, full curve]",
C[C@H]1CN([C@@H](C)CO)C(=O)CCCn2nncc2CO[C@H]1CN(C)C(=O)Nc1ccnc(N2CCOCC2)c1,"inconclusive: 20.6 µM [rising, single point]",
NC(=O)COC(=O)c1cc(Cl)cc(Cl)c1N,"inconclusive: 32.6 µM [cytotoxic, single point]",
CCOC(=O)n1c(=O)n(C)c2ccc(Cl)cc21,active: 8.2 µM,
O=C(c1nn(Cc2ccccc2)c(=O)c2ccccc12)N1CCc2ccccc2C1,"inconclusive: 23.1 µM [cytotoxic, partial curve, poor fit]",
Cc1ccc2c(Cl)c(C(=O)NC3CC3)sc2c1,,inactive: 0.311%
O=C(Nc1cccc(F)c1)C1CCN(S(=O)(=O)c2cnc[nH]2)CC1,"inconclusive: 20.6 µM [rising, single point]",
CC1CCCN(Cc2cn3c(-c4cccc(Br)c4)nnc3s2)C1 (configuration not stated),"inconclusive: 16.4 µM [rising, partial curve]",
O=S(=O)(c1ccccc1Cl)N1CCCC(c2nc(-c3cccnc3)no2)C1 (configuration not stated),active: 7.31 µM,
COc1ccc2nc(/N=C(\N)NC(=O)C(C)(C)C)nc(C)c2c1,"inconclusive: 2.31 µM [cytotoxic, partial curve, poor fit]",
CC1CCN(S(=O)(=O)c2ccc(NC(=O)CN3C(=O)NC(C)(c4ccccc4)C3=O)cc2)CC1 (configuration not stated),"inconclusive: 32.6 µM [rising, single point]",
COCCCn1c(=S)[nH]c2sc3c(c2c1=O)CCCS3,,inactive: -14.5%
O=C/C=C/c1c(-c2ccccc2)cc2oc3ccccc3cc1-2,"inconclusive: 18.4 µM [cytotoxic, single point]",
CCOCCCNc1nc2c(c(=O)[nH]c(=O)n2C)n1CCCc1ccccc1,,inactive: -1.92%
OCCNc1nc2ccccc2n1-c1ccccc1,"inconclusive: 35.5 µM [cytotoxic, single point]",
O=C(COC(=O)c1ccc(S(=O)(=O)N2CCCCC2)cc1)Nc1ccccc1,"inconclusive: 9.2 µM [rising, partial curve]",
COc1ccc(/C=N/NC(=O)c2cccnc2)cc1COc1ccc([N+](=O)[O-])c(C)c1,"inconclusive: 0.0046 µM [cytotoxic, full curve, poor fit]",
CCc1c(-c2cccc(Cl)c2)ncn1Cc1cccc(-c2ccccc2)c1,active: 16.4 µM,
COC(=O)c1cn(NC(=O)Cc2cccc(OC)c2)c(=O)c2ccccc12,"inconclusive: 13 µM [cytotoxic, single point]",
Cc1ccc(C)n1-c1nn(S(=O)(=O)c2cccc3cccnc23)c2cccc(F)c12,"inconclusive: 32.6 µM [cytotoxic, single point]",
O=C(NNC(=S)NC(=O)c1ccc(Br)cc1)c1cccc([N+](=O)[O-])c1,,inactive: 2.46%

# Structural class, the compounds so far containing a thiophene ring, fused or not.
Compound,Potency,"activity change, negative = cytotoxicity"
Cc1ccc2c(Cl)c(C(=O)NC3CC3)sc2c1,,inactive: 0.311%
COCCCn1c(=S)[nH]c2sc3c(c2c1=O)CCCS3,,inactive: -14.5%

# (more compounds)

Compound,Potency,"activity change, negative = cytotoxicity"
Cc1ccc2nc(-c3ccc(Cl)cc3)c(Cc3ccccc3C(F)(F)F)n2c1,"inconclusive: 23.1 µM [cytotoxic, single point]",
Cc1ccc(NC(=O)COc2ccccc2)cc1S(=O)(=O)N1CCCCC1,"inconclusive: 20.6 µM [cytotoxic, single point]",
Cc1cccc(NC(=S)N(CCN2CCOCC2)Cc2ccccc2F)c1,"inconclusive: 8.2 µM [cytotoxic, partial curve]",
CN(C)CCCCOc1ccccc1-c1ccccc1,"inconclusive: 4.61 µM [cytotoxic, partial curve, poor fit]",
CO/N=C/C(=N\Nc1ccccc1)C(=O)c1ccccc1,"inconclusive: 18.4 µM [cytotoxic, partial curve, poor fit]",
COc1ccc(/C=N\NC(=O)c2ccc(F)cc2)cc1COc1cc(F)ccc1[N+](=O)[O-],"inconclusive: 18.4 µM [cytotoxic, single point]",
CN(C)c1nc(C(F)(F)F)cc(=O)[nH]1,"inconclusive: 29.1 µM [rising, single point]",
CCN(CC(=O)Nc1ccc(OC)cc1)C(=O)CSCc1c(C)noc1C,"inconclusive: 23.1 µM [cytotoxic, single point]",
COc1ccc(NS(=O)(=O)c2cc(Br)cc3c2N(C(C)=O)CC3)cc1,active: 9.2 µM,
O=C(CN1c2cccc3cccc(c23)S1(=O)=O)Nc1ccccc1F,"inconclusive: 10.3 µM [cytotoxic, partial curve]",
COc1ccc(OC)c(Nc2nc(N)c([N+](=O)[O-])c(N3CCOCC3)n2)c1,"inconclusive: 16.4 µM [cytotoxic, single point]",
O=C(NCC(c1cccs1)N1CCOCC1)c1cccc([N+](=O)[O-])c1 (configuration not stated),,inactive: -3.33%
COc1ccc(-c2csc3nc(C)n(-n4cccc4)c(=O)c23)cc1OC,"inconclusive: 4.11 µM [cytotoxic, full curve, poor fit]",
Cn1c(=O)c2[nH]c(NCCCN3CCOCC3)nc2n(C)c1=O,"inconclusive: 29.1 µM [rising, single point]",
CC(=O)Nc1ccc(NC(=O)C(C)OC(=O)/C=C/c2cccs2)cc1 (configuration not stated),"inconclusive: 18.4 µM [cytotoxic, partial curve, poor fit]",
CN(C1CCCC1)C1CCN(C(=O)CNC(=O)/C=C/c2ccccc2)CC1,"inconclusive: 23.1 µM [cytotoxic, partial curve, poor fit]",
C=CCn1c(SCC(=O)Nc2ccc(S(N)(=O)=O)cc2)nnc1-c1cnccn1,"inconclusive: 29.1 µM [rising, single point]",
O=C(CCCN1C(=O)/C(=C/c2ccccc2Cl)SC1=S)NNC(=O)c1ccccc1Cl,,inactive: -9.44%
CCOc1ccccc1Nc1nnc(SCc2nnc(-c3cc(OC)c(OC)c(OC)c3)o2)s1,"inconclusive: 10.3 µM [cytotoxic, partial curve, poor fit]",
CCN1C(=O)C2(Nc3ccccc3-c3nc4ccccc4n32)c2cc(OC)ccc21 (configuration not stated),active: 13 µM,
COC(=O)c1ccc(N)c(CS(=O)(=O)c2ccc(Cl)cc2)c1,"inconclusive: 29.1 µM [rising, single point]",
